# According to PMC7819943, “Rice protein-binding microarrays: a tool to detect cis-acting elements near promoter regions in rice”:
# The chains behind the UniProt entries cited, without tags or fusion partners.
# UniProt Q0JBA9, entry or part of it: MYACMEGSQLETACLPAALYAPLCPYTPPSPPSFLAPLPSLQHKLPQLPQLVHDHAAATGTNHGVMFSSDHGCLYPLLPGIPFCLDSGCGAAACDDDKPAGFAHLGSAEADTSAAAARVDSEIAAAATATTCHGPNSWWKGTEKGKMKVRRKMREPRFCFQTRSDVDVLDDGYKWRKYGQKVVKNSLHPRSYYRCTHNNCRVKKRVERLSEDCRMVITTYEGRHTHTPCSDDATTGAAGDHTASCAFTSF
# This is one part of the list.
# Biological target: OsWRKY34 (Oryza sativa, UniProt Q0JBA9 1-250)
# Experiment: protein-binding microarray (RPBM); PBS, 2% BSA, 51.3 ng/ul salmon testes DNA, 50 uM zinc acetate, 200 nM TF, 25 C, 1 h; high values mean tight binding
# Conditions: protein: recombinant; tags: N-terminal polyhistidine and DsRed monomer fusion (pET32a); label: CyDye5-dUTP incorporated in the synthesized complementary strand; 3' TTTTT single-stranded linker to array surface; dsDNA, one strand shown
# How it was run: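 The binding signal for each feature is its fluorescence intensity in arbitrary units. An Axon 4000B scanner was used to read a custom Agilent array that had been made double-stranded with Cy5-dUTP primer extension, blocked with 2% BSA, incubated at 25 °C for 1 h with 200 nM protein in PBS, 2% BSA, salmon testes DNA and 50 µM zinc acetate, and washed. The protein was an N-terminal polyhistidine–DsRed transcription factor fusion from E. coli BL21-CodonPlus, purified on Ni–NTA.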
row,Sequence,binding signal
1,ACCTGTGCCGGCCGCCGAGCTCGTTGCCTCTCTCGCCGGCCGGAGTCACCTAGTGCAG,10100 fluorescence intensity (a.u.)
2,ATTTCGGCTGAGCTAATTTATCGTTATCTGTTAACACATTCGGAGTCACCTAGTGCAG,10200 fluorescence intensity (a.u.)
3,CCCTATTTCTCTCCACCACAATTATCATCTTCTTTTTTTTCGGAGTCACCTAGTGCAG,8630 fluorescence intensity (a.u.)
4,CCACGAGCGCCTGCGTCATCCCGTCTCATCGCGAGTCACCCGGAGTCACCTAGTGCAG,9100 fluorescence intensity (a.u.)
5,CCTTGGCAGTGGGGCGGAGGGGCGGTGTCGGTGCTGGCGGCGGAGTCACCTAGTGCAG,13800 fluorescence intensity (a.u.)
6,AAGAGAGAGGCTGATGTGGATTGTCTGACATGTGGGGCCCCGGAGTCACCTAGTGCAG,9650 fluorescence intensity (a.u.)
7,ATATGATTTCTGACTCTGTTTTACCATTGTTTTGTTTGTCCGGAGTCACCTAGTGCAG,11000 fluorescence intensity (a.u.)
8,GCCGCACTTTTTTTCTTTCCGGCTTGTGGGCCCCACAAATCGGAGTCACCTAGTGCAG,12000 fluorescence intensity (a.u.)
9,GCTGTTTGTTTGTTTTGGCTTAGACTTTTCGACTTATAAGCGGAGTCACCTAGTGCAG,10800 fluorescence intensity (a.u.)
10,ACGGTTGACTTATTCTTTACATGATGAAAAATCGTGTCTACGGAGTCACCTAGTGCAG,11700 fluorescence intensity (a.u.)
11,ATCTCTTTCATCCGATTACTGTGTTTTTTCTGTGGTCCAACGGAGTCACCTAGTGCAG,8410 fluorescence intensity (a.u.)
12,ATAGCATATTAGCACCACGTCTCGCCCGTTGTAAACAACTCGGAGTCACCTAGTGCAG,8050 fluorescence intensity (a.u.)
13,TTTCTTCTCCACCGACAGCCGCCGTTGCTCGGTTCTCTTCCGGAGTCACCTAGTGCAG,11600 fluorescence intensity (a.u.)
14,AATTGGTTCTTTCTCTGGACACACGATTAACTACGTACGACGGAGTCACCTAGTGCAG,8420 fluorescence intensity (a.u.)
15,TGAGAAACTTCTTTCAGCTGAAGCTACCGTCATAGGTACACGGAGTCACCTAGTGCAG,8070 fluorescence intensity (a.u.)
16,TATTTAATCCCTTTGCATATTTTTTATTAAAATCCTAAATCGGAGTCACCTAGTGCAG,8400 fluorescence intensity (a.u.)
17,GGAGCCACGTGAGCACTACTTTTCTTTCTTTGTTTTTCTCCGGAGTCACCTAGTGCAG,8660 fluorescence intensity (a.u.)
18,CAAACGTTCGATGTGGCAGGGTAAAAAATTTTGGGTTGGGCGGAGTCACCTAGTGCAG,8100 fluorescence intensity (a.u.)
19,TGTTCTGGTTCGGATCTGAGCGGGTGTTGGGTGTTTTCAACGGAGTCACCTAGTGCAG,9230 fluorescence intensity (a.u.)
20,CACTAAACTACCTATACTATCTCTACTATCACTTGGCTTTCGGAGTCACCTAGTGCAG,8610 fluorescence intensity (a.u.)
21,TATATCTATCCTGGTGTAGTACATCCCTGTAGTGTAGGGGCGGAGTCACCTAGTGCAG,9560 fluorescence intensity (a.u.)
22,CAGAATTAGATTTCCCCGGGCCCACCCCTTTTCCATGGCCCGGAGTCACCTAGTGCAG,8690 fluorescence intensity (a.u.)
23,CGCTGTCATTATCCGATTCGATTAACCCCGCGCGATCTCTCGGAGTCACCTAGTGCAG,9370 fluorescence intensity (a.u.)
24,CTGGTGCATGTCCACGTTCAGCGTACTACCTCTCAACTTGCGGAGTCACCTAGTGCAG,10100 fluorescence intensity (a.u.)
25,TCTGCTCCACCTCCGCGGCGGCCGCCGCCACCCACCTCCACGGAGTCACCTAGTGCAG,8400 fluorescence intensity (a.u.)
26,TTCGGCGACAACCCCTTCGATCTAATTTTTGGATATATTTCGGAGTCACCTAGTGCAG,8050 fluorescence intensity (a.u.)
27,AATGTTGTTTATTTATCTTGGTTTTCACTTTTCTAGTTTACGGAGTCACCTAGTGCAG,8960 fluorescence intensity (a.u.)

row,Sequence,binding signal
1,CTCATGTCGGTTTTTTCTCCGCCCGGTTAATCATTTCCCACGGAGTCACCTAGTGCAG,10400 fluorescence intensity (a.u.)
2,TCCTTCATCCTCATGTTTAATTTGCTCGGAGTGTCAAAACCGGAGTCACCTAGTGCAG,8340 fluorescence intensity (a.u.)
3,TCCCTTTATTCGATTGCATCGGTCATTTTTTCTGCCCATGCGGAGTCACCTAGTGCAG,8490 fluorescence intensity (a.u.)
4,GTATTGGGGATGGGAGAATGGGAGCTGGGAGGGCGGCCGACGGAGTCACCTAGTGCAG,12500 fluorescence intensity (a.u.)
5,CTTCGCCTTCGCTTCCGCTTCCGATTGCCGTTTCCGCTTTCGGAGTCACCTAGTGCAG,12800 fluorescence intensity (a.u.)
6,ACTCGCCGCGATCCCCGCCGTTTTATTTTCCAAACCAGCACGGAGTCACCTAGTGCAG,8740 fluorescence intensity (a.u.)
7,CCTATCATCCTATCCCCGACCTCCCTTGAAACATTTTTTACGGAGTCACCTAGTGCAG,8110 fluorescence intensity (a.u.)
8,TTAGTTTTCTCTTAGTTTGTCCATCTTTGTCGGTTTGCGCCGGAGTCACCTAGTGCAG,9470 fluorescence intensity (a.u.)
9,TCCGCTGGAGCCCGCCCGACCTCCGCCTCTCCTACCTTCTCGGAGTCACCTAGTGCAG,9240 fluorescence intensity (a.u.)
10,AGTGATGTGTGTGCGTATGCGTTTACCATGTAATAAAAAACGGAGTCACCTAGTGCAG,8630 fluorescence intensity (a.u.)
11,GACTTTTTTTTTTTGTCAAACTTTTTTATATTTGATCAAACGGAGTCACCTAGTGCAG,9250 fluorescence intensity (a.u.)
12,GGTCGCACAAAAACACGACCGCGCGCACCACCACCATTTCCGGAGTCACCTAGTGCAG,8160 fluorescence intensity (a.u.)
13,GGCCGGCGCCGTTTTCTTTTCCCCTACGCAGCCGTCGCCGCGGAGTCACCTAGTGCAG,8760 fluorescence intensity (a.u.)
14,CACTTCCTTGCCTTCTCATCGAGTTTAATTAGAATCCTTACGGAGTCACCTAGTGCAG,8640 fluorescence intensity (a.u.)
15,GCACTATTCATGTTTAACGGTTGACGGTTCGTCTTATTTGCGGAGTCACCTAGTGCAG,8920 fluorescence intensity (a.u.)
16,TATATTATATTTTCGTACTGGTTTTATTTTTTATAGGACGCGGAGTCACCTAGTGCAG,8520 fluorescence intensity (a.u.)
17,AAGCTTACACAGTTTCCAACAACTCTTTTCTTTTCAGTTACGGAGTCACCTAGTGCAG,8780 fluorescence intensity (a.u.)
18,GTCGCTTGTAGTACTACTCGTTTCAAAGAGCCTGTTTGCTCGGAGTCACCTAGTGCAG,10400 fluorescence intensity (a.u.)
19,TATTCCGTTTCGCTTATTCAATTCATCTATACTAATATAACGGAGTCACCTAGTGCAG,8650 fluorescence intensity (a.u.)
20,GGTTGCTTGCTTGCTTGGCCATCTGGAACAGTCAGTGTCTCGGAGTCACCTAGTGCAG,8360 fluorescence intensity (a.u.)
21,TTAAGATATAGGGTTAAGGTTGAGGCGGGGTAGAAGAAAGCGGAGTCACCTAGTGCAG,9330 fluorescence intensity (a.u.)
22,AATTCTCCCGTCGTCTCCTTCCTTGCGCCAAGAAAGACGACGGAGTCACCTAGTGCAG,9610 fluorescence intensity (a.u.)
23,TACGTAACTGTTGGGCAGTGCTACACCTTTTGCTTTGCTTCGGAGTCACCTAGTGCAG,9770 fluorescence intensity (a.u.)
24,GGTTGATGATGTGAGTCCGATTGTATTTTTTTTGTTCACCCGGAGTCACCTAGTGCAG,11000 fluorescence intensity (a.u.)
25,AATATATTATTTTAAATCATTCCTGTTTACATATAGCCATCGGAGTCACCTAGTGCAG,8590 fluorescence intensity (a.u.)
26,CACGCTTACTTTTTTTGTGACTAACATGCTTACTTCTCAACGGAGTCACCTAGTGCAG,12400 fluorescence intensity (a.u.)
27,TATGAAGCTGTCAGCTCTACTTCTTCTTTGGTGATTCTAACGGAGTCACCTAGTGCAG,8550 fluorescence intensity (a.u.)

# 13 successive records already listed, for reference:
row,Sequence,binding signal
12,GGTCGCACAAAAACACGACCGCGCGCACCACCACCATTTCCGGAGTCACCTAGTGCAG,8160 fluorescence intensity (a.u.)
13,GGCCGGCGCCGTTTTCTTTTCCCCTACGCAGCCGTCGCCGCGGAGTCACCTAGTGCAG,8760 fluorescence intensity (a.u.)
14,CACTTCCTTGCCTTCTCATCGAGTTTAATTAGAATCCTTACGGAGTCACCTAGTGCAG,8640 fluorescence intensity (a.u.)
15,GCACTATTCATGTTTAACGGTTGACGGTTCGTCTTATTTGCGGAGTCACCTAGTGCAG,8920 fluorescence intensity (a.u.)
16,TATATTATATTTTCGTACTGGTTTTATTTTTTATAGGACGCGGAGTCACCTAGTGCAG,8520 fluorescence intensity (a.u.)
17,AAGCTTACACAGTTTCCAACAACTCTTTTCTTTTCAGTTACGGAGTCACCTAGTGCAG,8780 fluorescence intensity (a.u.)
18,GTCGCTTGTAGTACTACTCGTTTCAAAGAGCCTGTTTGCTCGGAGTCACCTAGTGCAG,10400 fluorescence intensity (a.u.)
19,TATTCCGTTTCGCTTATTCAATTCATCTATACTAATATAACGGAGTCACCTAGTGCAG,8650 fluorescence intensity (a.u.)
20,GGTTGCTTGCTTGCTTGGCCATCTGGAACAGTCAGTGTCTCGGAGTCACCTAGTGCAG,8360 fluorescence intensity (a.u.)
21,TTAAGATATAGGGTTAAGGTTGAGGCGGGGTAGAAGAAAGCGGAGTCACCTAGTGCAG,9330 fluorescence intensity (a.u.)
22,AATTCTCCCGTCGTCTCCTTCCTTGCGCCAAGAAAGACGACGGAGTCACCTAGTGCAG,9610 fluorescence intensity (a.u.)
23,TACGTAACTGTTGGGCAGTGCTACACCTTTTGCTTTGCTTCGGAGTCACCTAGTGCAG,9770 fluorescence intensity (a.u.)
24,GGTTGATGATGTGAGTCCGATTGTATTTTTTTTGTTCACCCGGAGTCACCTAGTGCAG,11000 fluorescence intensity (a.u.)
